Where “and” joins values, the source holds several entries; their conditions need not be identical. Equal values may be shown once. Further values from the same series stand in other lists.
Assays:
[1] = Urine concentrations, 72-hour continuous intravenous infusion; type: in vivo, Sprague-Dawley rats; conditions: individual animals
Experimental: (§1) The safety and pharmacokinetics of PPTN (KB-1801) in rats receiving continuous intravenous injections of SBECD-containing solutions were analyzed. Three cohorts of six male and six female rats each were given continuous intravenous infusion of PPTN (KB-1801) at 10 mg/kg/day, 30 mg/kg/day or 100 mg/kg/day in a dosing solution containing PPTN at 0.25 mg/mL, 0.75 mg/mL or 2.5 mg/mL and SBECD at about 3.8%. Dosing volume was 40 mIkg/day.

[2] = Plasma concentrations during 24-hour continuous intravenous infusion; type: in vivo, Sprague-Dawley rats
Experimental: as §1, with “mIkg/day. [table]” for “mIkg/day.”

[3] = 72-hour IV infusion 30 mg/kg/day, male rats, interval 92-96 h
[4] = 72-hour IV infusion 100 mg/kg/day, female rats, interval 0-4 h
[5] = 72-hour IV infusion 100 mg/kg/day, female rats, interval 4-9 h
[6] = 72-hour IV infusion 100 mg/kg/day, female rats, interval 20-24 h
[7] = 72-hour IV infusion 100 mg/kg/day, female rats, interval 44-48 h
[8] = 72-hour IV infusion 100 mg/kg/day, female rats, interval 68-72 h
[9] = 72-hour IV infusion 100 mg/kg/day, female rats, interval 92-96 h
[10] = 72-hour IV infusion 100 mg/kg/day, male rats, interval 0-4 h
[11] = 72-hour IV infusion 100 mg/kg/day, male rats, interval 4-9 h
[12] = 72-hour IV infusion 100 mg/kg/day, male rats, interval 20-24 h
[13] = 72-hour IV infusion 100 mg/kg/day, male rats, interval 44-48 h
[14] = 72-hour IV infusion 100 mg/kg/day, male rats, interval 68-72 h
[15] = 72-hour IV infusion 100 mg/kg/day, male rats, interval 92-96 h

SMILES: O=C(O)c1cc(-c2ccc(C3CCNCC3)cc2)c2ccc(-c3ccc(C(F)(F)F)cc3)cc2c1 [KB-1801, 4-[4-(piperidin-4-yl)phenyl]-7-[4-(trifluoromethyl)phenyl]-2-naphthoic acid]
- Urine Conc. ([1]; 72-hour IV infusion 30 mg/kg/day, male rats, interval 68-72 h): 63.2 µg/mL and 77.8 µg/mL and 55.7 µg/mL and 85.4 µg/mL and 127.1 µg/mL and 60.0 µg/mL
- Amount in urine [1, 3]: 0.51 µg and 0.47 µg and 0.10 µg and 0.53 µg and 0.26 µg and 0.08 µg
- Urine Conc. [1, 3]: 0.26 μg/mL and 0.23 μg/mL and 0.52 μg/mL (2×) and 0.53 μg/mL and 0.39 μg/mL
- Amount in urine [1, 4]: 1.88 μg and 26.8 μg and 0.0 μg (2×)
- Urine Conc. [1, 4]: 31.3 µg/mL and 53.6 µg/mL and 0.01 µg/mL and 0.02 µg/mL
- Amount in urine [1, 5]: 29.6 µg and 51.6 µg and 68.6 µg and 54.7 µg and 5.5 µg
- Urine Conc. [1, 5]: 98.8 µg/mL and 257.8 µg/mL and 45.7 µg/mL and 109.3 µg/mL and 109.6 µg/mL
- Amount in urine [1, 6]: 45.4 µg and 52.8 µg and 0.1 µg and 91.5 µg and 34.9 µg and 50.0 µg
- Urine Conc. [1, 6]: 151.3 µg/mL and 105.5 µg/mL and 0.6 µg/mL and 91.5 µg/mL and 349.3 µg/mL and 124.9 µg/mL
- Amount in urine [1, 7]: 119.6 µg and 16.3 µg and 52.6 µg and 73.2 µg
- Urine Conc. [1, 7]: 79.7 µg/mL and 162.8 µg/mL and 175.4 µg/mL and 146.4 µg/mL
- Amount in urine [1, 8]: 55.0 µg and 44.2 µg and 78.6 µg and 38.3 µg and 9.20 µg and 225.2 µg
- Urine Conc. [1, 8]: 110.0 µg/mL and 220.9 µg/mL and 262.0 µg/mL and 127.6 µg/mL and 613.4 µg/mL and 225.2 µg/mL
- Amount in urine [1, 9]: 0.04 μg and 0.21 μg and 0.01 μg (2×) and 0.09 μg and 0.05 μg
- Urine Conc. [1, 9]: 0.19 μg/mL (2×) and 0.41 μg/mL and 0.18 μg/mL and 0.25 μg/mL and 0.10 μg/mL
- Amount in urine [1, 10]: 12.0 µg and 6.62 µg and 11.03 µg and 37.6 µg and 42.7 µg
- Urine Conc. [1, 10]: 119.9 µg/mL and 33.1 µg/mL and 110.3 µg/mL and 93.9 µg/mL and 142.4 µg/mL
- Amount in urine [1, 11]: 21.8 µg and 28.5 µg and 103.5 µg and 67.7 µg and 233.3 µg and 8.0 µg
- Urine Conc. [1, 11]: 218.2 µg/mL and 284.7 µg/mL and 207.1 µg/mL and 135.4 µg/mL and 93.3 µg/mL and 79.7 µg/mL
- Amount in urine [1, 12]: 205.3 µg and 120.0 µg and 102.7 µg and 50.9 µg and 53.1 µg and 58.3 µg
- Urine Conc. [1, 12]: 205.3 µg/mL and 239.9 µg/mL and 102.7 µg/mL and 254.4 µg/mL and 265.7 µg/mL and 291.4 µg/mL
- Amount in urine [1, 13]: 79.5 µg and 401.7 µg and 73.4 µg and 38.8 µg and 218.6 µg
- Urine Conc. [1, 13]: 397.5 µg/mL and 200.8 µg/mL and 367.0 µg/mL and 388.2 µg/mL and 145.7 µg/mL
- Amount in urine [1, 14]: 17.8 µg and 165.9 µg and 261.0 µg and 174.4 µg and 110.2 µg
- Urine Conc. [1, 14]: 177.9 µg/mL and 331.8 µg/mL and 261.0 µg/mL and 348.8 µg/mL and 220.3 µg/mL
- Amount in urine [1, 15]: 1.13 µg and 0.73 µg and 0.34 µg and 0.53 µg and 0.02 µg
- Urine Conc. [1, 15]: 1.13 µg/mL and 1.45 µg/mL and 1.68 µg/mL and 1.06 µg/mL and 2.09 µg/mL
- Plasma concentration, individual animal ([2]; female Sprague-Dawley rats, 24-hour intravenous infusion at 10 mg/kg, time 1 h, 10 mg/kg): 361.0 ng/mL and 171.3 ng/mL and 115.1 ng/mL
- Plasma concentration, individual animal ([2]; female Sprague-Dawley rats, 24-hour intravenous infusion at 10 mg/kg, time 2 h, 10 mg/kg): 236.8 ng/mL and 224.0 ng/mL
- Plasma concentration, individual animal ([2]; female Sprague-Dawley rats, 24-hour intravenous infusion at 10 mg/kg, time 4 h, 10 mg/kg): 514.4 ng/mL and 318.2 ng/mL
- Plasma concentration, individual animal ([2]; female Sprague-Dawley rats, 24-hour intravenous infusion at 10 mg/kg, time 6 h, 10 mg/kg): 517.6 ng/mL and 464.6 ng/mL
- Plasma concentration, individual animal ([2]; female Sprague-Dawley rats, 24-hour intravenous infusion at 10 mg/kg, time 8 h, 10 mg/kg): 443.8 ng/mL and 454.7 ng/mL
- Plasma concentration, individual animal ([2]; female Sprague-Dawley rats, 24-hour intravenous infusion at 10 mg/kg, time 24 h, 10 mg/kg): 955.6 ng/mL and 1151.8 ng/mL
- Plasma concentration, individual animal ([2]; female Sprague-Dawley rats, 24-hour intravenous infusion at 30 mg/kg, time 1 h, 30 mg/kg): 615.7 ng/mL and 704.9 ng/mL
- Plasma concentration, individual animal ([2]; female Sprague-Dawley rats, 24-hour intravenous infusion at 30 mg/kg, time 2 h, 30 mg/kg): 1031.6 ng/mL and 1309.5 ng/mL
- Plasma concentration, individual animal ([2]; female Sprague-Dawley rats, 24-hour intravenous infusion at 30 mg/kg, time 4 h, 30 mg/kg): 1396.0 ng/mL and 1936.4 ng/mL
- Plasma concentration, individual animal ([2]; female Sprague-Dawley rats, 24-hour intravenous infusion at 30 mg/kg, time 6 h, 30 mg/kg): 1903.2 ng/mL and 1640.0 ng/mL
- Plasma concentration, individual animal ([2]; female Sprague-Dawley rats, 24-hour intravenous infusion at 30 mg/kg, time 8 h, 30 mg/kg): 1362.1 ng/mL and 2091.5 ng/mL
- Plasma concentration, individual animal ([2]; female Sprague-Dawley rats, 24-hour intravenous infusion at 30 mg/kg, time 24 h, 30 mg/kg): 3772.1 ng/mL and 1746.0 ng/mL and 1995.6 ng/mL
- Plasma concentration, individual animal ([2]; female Sprague-Dawley rats, 24-hour intravenous infusion at 100 mg/kg, time 1 h, 100 mg/kg): 1906.4 ng/mL and 1597.2 ng/mL
- Plasma concentration, individual animal ([2]; female Sprague-Dawley rats, 24-hour intravenous infusion at 100 mg/kg, time 2 h, 100 mg/kg): 176.5 ng/mL and 4269.2 ng/mL and 2496.4 ng/mL
- Plasma concentration, individual animal ([2]; female Sprague-Dawley rats, 24-hour intravenous infusion at 100 mg/kg, time 4 h, 100 mg/kg): 5749.5 ng/mL and 5331.1 ng/mL
- Plasma concentration, individual animal ([2]; female Sprague-Dawley rats, 24-hour intravenous infusion at 100 mg/kg, time 6 h, 100 mg/kg): 4434.5 ng/mL and 4923.9 ng/mL
- Plasma concentration, individual animal ([2]; female Sprague-Dawley rats, 24-hour intravenous infusion at 100 mg/kg, time 8 h, 100 mg/kg): 5510.0 ng/mL and 5078.2 ng/mL
- Plasma concentration, individual animal ([2]; female Sprague-Dawley rats, 24-hour intravenous infusion at 100 mg/kg, time 24 h, 100 mg/kg): 10396.6 ng/mL and 8457.1 ng/mL
- Plasma concentration, individual animal ([2]; male Sprague-Dawley rats, 24-hour intravenous infusion at 10 mg/kg, time 2 h, 10 mg/kg): 232.9 ng/mL and 267.6 ng/mL
- Plasma concentration, individual animal ([2]; male Sprague-Dawley rats, 24-hour intravenous infusion at 10 mg/kg, time 4 h, 10 mg/kg): 368.8 ng/mL and 227.7 ng/mL and 537.2 ng/mL
- Plasma concentration, individual animal ([2]; male Sprague-Dawley rats, 24-hour intravenous infusion at 10 mg/kg, time 6 h, 10 mg/kg): 319.8 ng/mL and 422.8 ng/mL
- Plasma concentration, individual animal ([2]; male Sprague-Dawley rats, 24-hour intravenous infusion at 10 mg/kg, time 8 h, 10 mg/kg): 355.4 ng/mL and 464.0 ng/mL
- Plasma concentration, individual animal ([2]; male Sprague-Dawley rats, 24-hour intravenous infusion at 10 mg/kg, time 24 h, 10 mg/kg): 931.8 ng/mL and 453.8 ng/mL and 722.7 ng/mL
- Plasma concentration, individual animal ([2]; male Sprague-Dawley rats, 24-hour intravenous infusion at 30 mg/kg, time 1 h, 30 mg/kg): 953.9 ng/mL and 1465.9 ng/mL and 631.3 ng/mL
- Plasma concentration, individual animal ([2]; male Sprague-Dawley rats, 24-hour intravenous infusion at 30 mg/kg, time 2 h, 30 mg/kg): 918.9 ng/mL and 1589.9 ng/mL and 777.4 ng/mL
- Plasma concentration, individual animal ([2]; male Sprague-Dawley rats, 24-hour intravenous infusion at 30 mg/kg, time 4 h, 30 mg/kg): 1178.3 ng/mL and 1318.0 ng/mL
- Plasma concentration, individual animal ([2]; male Sprague-Dawley rats, 24-hour intravenous infusion at 30 mg/kg, time 6 h, 30 mg/kg): 1593.6 ng/mL and 1640.0 ng/mL
- Plasma concentration, individual animal ([2]; male Sprague-Dawley rats, 24-hour intravenous infusion at 30 mg/kg, time 8 h, 30 mg/kg): 1580.3 ng/mL and 1471.5 ng/mL
- Plasma concentration, individual animal ([2]; male Sprague-Dawley rats, 24-hour intravenous infusion at 30 mg/kg, time 24 h, 30 mg/kg): 3331.2 ng/mL and 2290.3 ng/mL
- Plasma concentration, individual animal ([2]; male Sprague-Dawley rats, 24-hour intravenous infusion at 100 mg/kg, time 1 h, 100 mg/kg): 2774.3 ng/mL and 2044.9 ng/mL
- Plasma concentration, individual animal ([2]; male Sprague-Dawley rats, 24-hour intravenous infusion at 100 mg/kg, time 2 h, 100 mg/kg): 2536.6 ng/mL and 4129.6 ng/mL and 1612.6 ng/mL
- Plasma concentration, individual animal ([2]; male Sprague-Dawley rats, 24-hour intravenous infusion at 100 mg/kg, time 4 h, 100 mg/kg): 3882.2 ng/mL and 4393.3 ng/mL
- Plasma concentration, individual animal ([2]; male Sprague-Dawley rats, 24-hour intravenous infusion at 100 mg/kg, time 6 h, 100 mg/kg): 6326.5 ng/mL and 9474.0 ng/mL and 4167.8 ng/mL
- Plasma concentration, individual animal ([2]; male Sprague-Dawley rats, 24-hour intravenous infusion at 100 mg/kg, time 8 h, 100 mg/kg): 5471.2 ng/mL and 5325.5 ng/mL
- Plasma concentration, individual animal ([2]; male Sprague-Dawley rats, 24-hour intravenous infusion at 100 mg/kg, time 24 h, 100 mg/kg): 8719.6 ng/mL and 6859.8 ng/mL

Source: patent US20220202799A1, “PHARMACEUTICAL FORMULATIONS CONTAINING P2Y14 ANTAGONISTS” (priority 2019, published 2022)
